Data: article PMC4786428, “Recombinational branch migration by the RadA/Sms paralog of RecA in Escherichia coli”
Where a chain is given by its changes, count along the chain named. The comparison behind a weaker result is the experiment's own reference, which may not be listed here. Tags and fusion partners may be left off the protein sequences shown.

Legend:
Experiment in all cases: EMSA
Details in all cases: 1 mM ADP, defective relative to wild type; 50 mM Tris-HCl pH 7.5, 10 mM MgCl2, 0.1 mM EDTA, 75 mM NaCl, 5 mM DTT, 100 ug/ml BSA, 1 mM nucleotide, 100 fmol DNA, 37 C for 20-30 min; recombinant protein; residues 1-460; label: 5' 32P (unlabeled as competitor); single-stranded DNA
[1] = target: T1, RadA C28Y (Escherichia coli) (UniProt P24554)
T1 sequence (looked up): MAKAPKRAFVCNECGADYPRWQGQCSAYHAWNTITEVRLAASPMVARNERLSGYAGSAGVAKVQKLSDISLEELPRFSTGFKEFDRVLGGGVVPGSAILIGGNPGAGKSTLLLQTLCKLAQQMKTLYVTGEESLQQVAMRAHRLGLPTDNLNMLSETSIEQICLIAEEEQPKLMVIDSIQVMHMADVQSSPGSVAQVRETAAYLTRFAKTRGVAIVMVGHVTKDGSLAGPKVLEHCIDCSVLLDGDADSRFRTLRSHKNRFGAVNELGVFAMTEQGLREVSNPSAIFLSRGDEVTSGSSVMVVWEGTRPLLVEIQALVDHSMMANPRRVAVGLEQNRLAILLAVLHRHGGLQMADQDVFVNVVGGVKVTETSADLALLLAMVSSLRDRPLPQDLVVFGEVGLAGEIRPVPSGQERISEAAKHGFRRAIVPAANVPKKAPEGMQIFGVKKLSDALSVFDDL

[2] = target: T2, RadA K108R (Escherichia coli) (UniProt P24554)
T2 sequence (looked up): T1 sequence (looked up) with Y28C, K108R

[3] = target: T3, RadA K258A (Escherichia coli) (UniProt P24554)
T3 sequence (looked up): T1 sequence (looked up) with Y28C, K258A

Measured: binding result

TTTTTTTTTTTTTTTTTTTTTTTTTTTTTT [poly(dT)30]
binds more weakly: all assays above
